{
  "source": "patent US20220185811A1",
  "about": "“FGFR4 KINASE INHIBITOR AND PREPARATION METHOD THEREFOR AND USE THEREOF” (SHOUYAO HOLDINGS (BEIJING) CO., LTD., priority 2019, published 2022)",
  "origin": "cited, not measured here",
  "test_system": "FGFR1-3",
  "conditions": "background art; more selective for FGFR1-3 than for FGFR4; cited from earlier work",
  "note": "Some of these results come from one statement about several compounds together. At least one compound was matched to its structure with a doubt left.",
  "data": [
    {"smiles": "Cc1nc2ccc(-n3ncc(C(=O)c4cc5ccccc5[nH]4)c3N)cc2[nH]1", "note": "[CH5183284]", "values": [
      {"measurement": "IC50", "value": "< 0.01", "unit": "µM"}
    ]}
  ]
}
